# Source: PubChem BioAssay AID652054 (National Center for Advancing Translational Sciences (NCATS), 2013)
# Chains of the proteins cited; added tags and fusions are not shown.
# UniProt P35462, whole entry, looked up: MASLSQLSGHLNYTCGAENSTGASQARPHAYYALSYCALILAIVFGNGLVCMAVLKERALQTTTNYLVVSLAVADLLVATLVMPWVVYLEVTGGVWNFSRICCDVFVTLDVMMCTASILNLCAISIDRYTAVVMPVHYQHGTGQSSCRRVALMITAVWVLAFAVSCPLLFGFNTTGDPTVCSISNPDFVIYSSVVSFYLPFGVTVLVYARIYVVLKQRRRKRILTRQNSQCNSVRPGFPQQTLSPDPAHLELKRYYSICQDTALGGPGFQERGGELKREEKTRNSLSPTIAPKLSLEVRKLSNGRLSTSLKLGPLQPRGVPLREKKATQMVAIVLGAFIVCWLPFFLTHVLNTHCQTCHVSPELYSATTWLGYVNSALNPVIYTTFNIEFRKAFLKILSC
# The whole screen tested about 360,000 compounds, of which about 9,100 (2.5%) were called active. Inconclusive results, whose numbers are uncertain, are shown with a selection of clear calls. No stated cut-off is given here; in the data, active means max response below about -50%; inconclusive means no clear call, values can overlap the other calls; inactive means above that.
# Target: D(3) dopamine receptor (Homo sapiens) (UniProt P35462)
# Experiment: qHTS of D3 Dopamine Receptor Antagonist: qHTS
# Conditions: D3R cells, DiscoveRx beta-arrestin luminescence, antagonist mode; hits give low values
# Summary of the method: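 Cells plated overnight at 1500 cells/well, then exposed to library compounds with dopamine controls for 90 minutes at 37 degrees C. DiscoveRx reagent added for 30–60 minutes at room temperature; luminescence read, quantitative HTS format.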
# On the % scale 0 is the no-effect control and ±100 the full control effect.
row,SMILES,"max response, negative = inhibition"
1,CC(C)(C)c1ccc(C(=O)N2CCC(=O)N(C(CO)Cc3ccccc3)CC2)cc1 (stereo unspecified),inconclusive: -43.8%
2,OC1(c2ccc(F)cc2)CCN(Cc2cccnc2)CC1,active: -60.9%
3,CC[C@@H]1C=C(C(=O)O)[C@H](c2ccc(OC)c(OC)c2)N1S(=O)(=O)c1ccc(C)cc1,inconclusive: -31.7%
4,O=C(Cc1ccc(S(=O)(=O)N2CCCCC2)s1)Nc1cccc2ccccc12,inactive: -22.1%
5,C/C(=C\C(=O)c1ccccc1)Nc1ccc(O)cc1,inconclusive: -49.5%
6,Cc1cc2[nH]ncc2cc1NC(=S)NC(=O)c1ccccc1,active: -53.9%
7,C=CCc1ccccc1OCCNCc1ccccc1,active: -88.4%
8,CCOc1ccccc1N(CC(=O)OC)S(C)(=O)=O,active: -107%
9,CN1C2CCC1/C(=C\c1ccc(F)cc1)C(=O)/C2=C/c1ccc(F)cc1,inconclusive: -34.2%
10,Nc1ccc(O)cc1C(=O)OCC(=O)c1ccc(C2CCCCC2)cc1,inactive: 7.21%
11,CCC(C)NC(=O)c1cc(C)no1 (stereo unspecified),active: -63.6%
12,c1ccc2c(c1)CCN(c1ncnc3c1[nH]c1ccccc13)C2,active: -52.5%
13,O=C(CC(Sc1ccc(Br)cc1)C(=O)O)c1ccc(F)cc1 (stereo unspecified),inconclusive: -32.8%
14,CCOC(=O)c1cnn(-c2ccc(C(C)C)cc2)c1NC(=O)C1CCC1,inconclusive: -31.3%
15,Oc1ccc(C[C@H]2CNCCN2CC2(c3ccccc3)CC2)cc1,inactive: 0%
16,NNc1nc(-c2ccccc2)cc(-c2ccccc2O)n1,active: -99.5%
17,COc1cc2c(cc1OC)CN(C(C)C(=O)N1CCc3ccccc31)CC2 (stereo unspecified),inconclusive: -32.8%
18,O=C(N/N=C/c1ccc([N+](=O)[O-])o1)c1cc(-c2ccncc2)nc2ccccc12,inactive: -23.5%
19,COc1cccc(COc2nc3c(c(=O)n(C)c(=O)n3C)n2C)c1,inconclusive: -33.6%
20,CCOc1ccccc1NC(=S)/C(=C(\[O-])c1ccc2c(c1)OCCO2)[n+]1ccc(CC)cc1,inconclusive: -44.4%
21,O=C(O)c1ccc(NC(=S)NC(=O)c2cccnc2)cc1,inconclusive: -45.3%
22,CCCCOC(=O)c1ccc(NC(=S)NC(=O)c2c(Cl)cnn2CC)cc1,inactive: -10.9%

row,SMILES,"max response, negative = inhibition"
1,O=[N+]([O-])c1ccc(/C=N/NC(=S)Nc2ccccc2F)o1,inconclusive: -38.8%
2,CCOC(=O)C(C)On1c(-c2ccc(Cl)cc2)nc2ccc([N+](=O)[O-])cc21 (stereo unspecified),inactive: 38.5%
3,Cc1oc2c(c1C(=O)c1ccccc1)C(=O)C(=O)c1ccccc1-2,inconclusive: -42.2%
4,CN[C@H](CC(=O)O)C(=O)O,inconclusive: -44.3%
5,Cc1cc(C)c(S(=O)(=O)Nc2cccc(C(=O)O)c2)cc1S(=O)(=O)Nc1cccc(C(=O)O)c1,inactive: 4.86%
6,CCCN(CCC)S(=O)(=O)c1cccc(C(=O)Nc2ccc3c(c2)OCO3)c1,inconclusive: -31.2%
7,CCOC(=O)N1CCC(NCCNC(=O)c2ccccc2Cl)CC1,inconclusive: -39.6%
8,CN1CCN(c2oc(-c3cccs3)nc2S(=O)(=O)c2ccccc2)CC1,inconclusive: -36.4%
9,Nc1ccc(-c2c3ccc(=O)cc-3oc3cc(O)ccc23)cc1C(=O)O,active: -54.9%
10,N#CC1=C(N)N2C(=C(C#N)C13CCN(Cc1ccccc1)CC3)Nc1ccccc12,inconclusive: -39.5%
11,CC(C)(C)NC(=O)C(c1ccc(-c2ccccc2)cc1)N(C[C@H]1CC[C@@H]([C@@H]2CC[C@H](CO)O2)O1)C(=O)c1cccc(Cl)c1 (stereo partly specified),inactive: 21.9%
12,O=C(c1ccc(=O)[nH]c1)N1CCN(S(=O)(=O)c2cc(C(F)(F)F)ccc2Cl)CC1,inactive: -18.6%
13,COc1ccc2nc(N3C(=O)C(O)=C(C(=O)c4ccco4)C3c3ccco3)sc2c1 (stereo unspecified),inconclusive: -31.3%
14,CS(=O)(=O)c1ccc(C(=O)OC2CCOC2=O)cc1[N+](=O)[O-] (stereo unspecified),inconclusive: -37.5%
15,O=C(NCCC1CCCCN1S(=O)(=O)c1cccs1)C(=O)Nc1cccc(F)c1 (stereo unspecified),inconclusive: -44.2%
16,CCC1Oc2ccccc2N(CC(=O)NCCCN2CCN(Cc3ccccc3)CC2)C1=O (stereo unspecified),inconclusive: -49.4%
17,CCCCN1C(=O)/C(=c2\sc3nc(=O)c(-c4ccccc4)nn3c2=O)c2ccccc21,active: -68.5%
18,Cc1ccc(-c2cc(NC(=O)c3ccccc3[N+](=O)[O-])n[nH]2)cc1,inconclusive: -31.3%
19,Cc1ccc(C(C)(O)CS(=O)(=O)Cc2ccccc2)cc1 (stereo unspecified),inactive: 6.62%
20,CCN(CC)CCN1c2ccccc2Sc2ccccc21,inconclusive: -42.8%
21,N#CCCn1c2ccccc2c2nc3ccccc3nc21,active: -51.8%
22,O=C(Nc1ccccc1)N1CCCc2ccccc21,inconclusive: -47.4%

row,SMILES,"max response, negative = inhibition"
1,Cc1ccc2nc(C3CCN(CC(=O)N4CCCCCC4)CC3)[nH]c2c1,inconclusive: -42.7%
2,CC(C)C[C@H]1COc2cc(N(C)CCO)ccc2S(=O)(=O)N1,inconclusive: -31.6%
3,CCn1c(=O)cc(NC2=NCC(C)CN2c2cccc(Cl)c2)n(C)c1=O (stereo unspecified),inconclusive: -46.6%
4,COc1cccc(C(c2ccccc2)N2C3CCC2CN(S(=O)(=O)c2ccc(F)cc2)CC3)c1 (stereo unspecified),inconclusive: -35.2%
5,Cc1cccc(NC(=O)c2nc(S(=O)(=O)Cc3ccccc3)ncc2Cl)c1,inactive: -1.08%
6,CCC(C)c1ccccc1NC(=S)Nc1cccnc1 (stereo unspecified),inconclusive: -47%
7,CC(C)CC(=O)Nc1ccc(C(=O)Cn2nc(C(=O)O)c3ccccc3c2=O)cc1,inconclusive: -44.1%
8,O=C(NCC1CCCN(Cc2ccccc2F)C1)c1cccc(C(F)(F)F)c1 (stereo unspecified),inconclusive: -36.2%
9,C=CC[C@@H](Cc1ccc(F)cc1)C(=O)OC[C@@H]1CCCN1C(=O)[C@@H](CC=C)CC(=O)N[C@@H](CO)Cc1ccccc1,inactive: 5.19%
10,CC(C)(C)NC(=O)CSc1nncn1NCc1cccc2ccccc12,inconclusive: -32.3%
11,Cc1ccccc1-c1nc(Cc2ccccc2)no1,active: -52.8%
12,CC(=O)Nc1ccc(NC(=O)CSc2nnc(-c3ccccc3)n2Cc2ccc3c(c2)OCO3)cc1,active: -103%
13,C=CCNC(=O)C1CCC(=O)N1S(=O)(=O)c1ccc(C)cc1 (stereo unspecified),inconclusive: -32.6%
14,Cc1cc(-n2nc(C)cc2C)nc(NS(=O)(=O)c2ccccc2)n1,inconclusive: -42%
15,O=C1c2ccc(Cl)cc2S(=O)(=O)c2cccc(C(=O)N3CCN(c4ccc(Cl)cn4)CC3)c21,inconclusive: -43.7%
16,CC(=O)Nc1ccc(NC(=O)CSc2nc(N)c(NC(=O)c3ccco3)c(=O)[nH]2)cc1,inactive: 16.2%
17,COc1cc(OC)cc(C(=O)NNC(=O)c2cc(S(=O)(=O)N3CCOCC3)ccc2F)c1,inconclusive: -31.2%
18,Clc1ccc(N2CCN(Cc3ccco3)CC2)cc1,inconclusive: -30.4%
19,Cc1ccc(S(=O)(=O)N2CCCC2)cc1C(=O)NCc1ccccn1,inconclusive: -30.6%
20,CCCCC[C@H](C)N1C[C@H](COCc2ccccc2)Oc2cc(N3CC[C@H](N(C)C)C3)ccc2S1(=O)=O,inactive: 2.07%
21,CCC(=O)NC(C)C(c1cccs1)N1CCOCC1 (stereo unspecified),inconclusive: -32%
22,CCOC1=CC(=O)OC(c2ccccc2)C1 (stereo unspecified),inconclusive: -40%

row,SMILES,"max response, negative = inhibition"
1,CCOCCCNC(=O)CS(=O)(=O)Cc1nc(-c2cccc(OC)c2)oc1C,inconclusive: -34.1%
2,CC1CCN(CC(=O)N2CCc3ccccc32)CC1,active: -57.6%
3,CC(C)c1ccc(CN(C(=O)C2COc3ccccc3O2)C2CCS(=O)(=O)C2)cc1 (stereo unspecified),inactive: -26.5%
4,CC(C)N(C(=O)[C@H]1C[C@H](CC(=O)NCc2ccco2)C(=O)N2CCc3c([nH]c4ccc(Cl)cc34)[C@]12C)C(C)C,inconclusive: -34.8%
5,C/C=C/C(=O)OCC(=O)Nc1ccc(OC)c(Cl)c1,inconclusive: -32.4%
6,O=C(O)c1ccc(Nc2ccc([N+](=O)[O-])c3nonc23)cc1,active: -77.3%
7,COc1ccccc1N1CCN(C(=O)c2coc(=O)c(Br)c2)CC1,inconclusive: -44.8%
8,O=C1C2C3CC4C5C3C1C5C1(SCCS1)C42 (stereo unspecified),inactive: 31%
9,CCOc1ccc(C(=O)N2CCCCCC2)cc1,inconclusive: -42.6%
10,Cc1cccc(NC(=S)NNc2ncc(C(F)(F)F)cc2Cl)c1,active: -63.7%
11,CCN1CCC(=NNC(=O)CC23CC4CC(CC(C4)C2)C3)CC1,inconclusive: -41.5%
12,CCCN1CCN(CCCNC(=S)Nc2ccc3nc(N4CCN(CC)CC4)cc(C)c3c2)CC1,inconclusive: -47.7%
13,O=C(CCN1CCc2ccccc2C(O)(c2ccccc2)C1)c1ccc2c(c1)OCCO2 (stereo unspecified),active: -73.7%
14,Cc1cc2c(=O)n(CC(=O)NCC(=O)N3CCN(Cc4ccccc4)CC3)cnc2s1,inconclusive: -30.6%
15,Cc1ccc(C(C)C)c(OCC(=O)Nc2ccccc2N2CCN(C)CC2)c1,inconclusive: -43.6%
16,CC(NC(=O)C(NS(=O)(=O)c1cccc2nsnc12)C(C)C)c1ccccc1 (stereo unspecified),inconclusive: -30.7%
17,COC(CNC(=O)c1ccc2c(c1)ncn2-c1cccc(F)c1)OC,inconclusive: -33.7%
18,O=C(NCc1ccc2c(c1)OCO2)C1CCN(Cc2cnn(-c3ccccc3)c2-n2cccc2)CC1,inconclusive: -30.7%
19,Cc1ccc(NC(=O)CCNS(=O)(=O)c2cccc3nonc23)cc1,inconclusive: -30.5%
20,CC[N+]1(C)CCC(O)(c2ccc(OC)cc2)C(C(=O)c2ccc(OC)cc2)C1 (stereo unspecified),inconclusive: -35.7%

# Retrieved by structure from the list above (3):
row,SMILES,"max response, negative = inhibition"
1,CCOCCCNC(=O)CS(=O)(=O)Cc1nc(-c2cccc(OC)c2)oc1C,inconclusive: -34.1%
2,CC1CCN(CC(=O)N2CCc3ccccc32)CC1,active: -57.6%
17,COC(CNC(=O)c1ccc2c(c1)ncn2-c1cccc(F)c1)OC,inconclusive: -33.7%
